Data on 1 substance can be found in publication PMC6525112.

Chains of the proteins cited; added tags and fusions are not shown. Residues count along the entry.
UniProt P01009, residues 25-418: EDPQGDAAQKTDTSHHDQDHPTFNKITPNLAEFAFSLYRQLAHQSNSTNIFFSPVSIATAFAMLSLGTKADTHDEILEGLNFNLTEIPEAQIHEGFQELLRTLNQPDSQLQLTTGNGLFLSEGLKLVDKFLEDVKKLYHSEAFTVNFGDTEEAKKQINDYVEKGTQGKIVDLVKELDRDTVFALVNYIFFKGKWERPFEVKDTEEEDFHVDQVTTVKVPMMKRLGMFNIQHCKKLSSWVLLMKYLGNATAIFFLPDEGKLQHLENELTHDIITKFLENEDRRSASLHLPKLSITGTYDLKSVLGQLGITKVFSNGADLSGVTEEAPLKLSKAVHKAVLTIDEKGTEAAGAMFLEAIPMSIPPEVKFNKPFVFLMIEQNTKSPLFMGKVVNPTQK
UniProt P01024, residues 672-748: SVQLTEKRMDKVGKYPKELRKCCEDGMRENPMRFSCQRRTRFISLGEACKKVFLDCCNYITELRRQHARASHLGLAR

These are yes or no findings as the source states them, for the method shown. Some binding calls cover weakened binding; strength is not graded here.

This assay addresses commercial human plasma-derived α-1-antitrypsin (human) (UniProt P01009). Briefly: anaphylatoxins detected by cytometric bead array in purified plasma-derived α-1-antitrypsin; CBA anaphylatoxin flex set on commercial human plasma-derived and recombinant α-1-antitrypsin preparations.

On to “C3a present in human plasma-derived α-1-antitrypsin (from UniProt P01024 672-748)”, for which the binding entry is “binds”.
